Structures are written as SMILES. ± gives the standard deviation of the averaged measurements. This is one part of the list. This data set is noisy: repeats of one test often differ as much as different tests do.

The subject of the assay is IL-6-GFP PC-9. Description: IL-6-GFP fluorescence relative to DMSO control (fraction of control); higher = more IL-6-GFP expression. The conditions noted are these: compound concentration: 10 uM; treatment time: 48 h. The protocol: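 IL-6-GFP-overexpressing PC-9 and PC-9GR EGFR-mutant lung cancer cells (3000 cells/well, 96-well) were treated for 48 h with each compound of the Selleck L2000 library at 10 uM. IL-6-GFP fluorescence was read on a high-content screening system, and viability by CCK-8 absorbance on a parallel plate set. Each value was normalised as compound well / DMSO control well; two independent replicates.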
`CC(C)C(=O)Nc1ccc([N+](=O)[O-])c(C(F)(F)F)c1` [Flutamide]: the IL-6-GFP fluorescence is 0.933 ± 0.22.
Consider `Nc1nc(F)nc2c1ncn2C1OC(CO)C(O)C1O` (centres undefined) [Fludarabine], for which the IL-6-GFP fluorescence is 1.09 ± 0.014.
Take `CONC(=O)Nc1ccc(-c2sc3c(c2CN(C)C)c(=O)n(-c2ccc(OC)nn2)c(=O)n3Cc2c(F)cccc2F)cc1` [Relugolix]: the IL-6-GFP fluorescence amounted to 0.798 ± 0.019.
Compound `CC1CC2C3CC(F)C4=CC(=O)C=CC4(C)C3(F)C(O)CC2(C)C1(OC(=O)c1ccco1)C(=O)SCF` (centres undefined) [fluticasone furoate] registered an IL-6-GFP fluorescence of 0.908 ± 0.27.
The figure for `Cc1cccc(N(C)C(=S)Oc2ccc3ccccc3c2)c1` [Tolnaftate] is 0.817 ± 0.21; for `Nc1nnc(-c2cccc(Cl)c2Cl)c(N)n1` [Lamotrigine] it is 0.727 ± 0.33; for `COC(=O)c1cc(OC)c2c(c1-c1c(C(=O)OC)cc(OC)c3c1OCO3)OCO2` [Bifendate] it is 0.776 ± 0.055.
In the case of `CCC1(O)CC2CN(CCc3c([nH]c4ccccc34)C(C(=O)OC)(c3cc4c(cc3OC)N(C=O)C3C(O)(C(=O)OC)C(OC(C)=O)C5(CC)C=CCN6CCC43C65)C2)C1.O=S(=O)(O)O` (centres undefined) [Vincristine sulfate] it was 1.01 ± 0.06; in that of `O=C(O)c1cc(N=Nc2ccc(S(=O)(=O)Nc3ccccn3)cc2)ccc1O` [Sulfasalazine], 0.779 ± 0.27; in that of `O=C(c1cc(Cc2n[nH]c(=O)c3ccccc23)ccc1F)N1CCN(C(=O)C2CC2)CC1`, 0.963 ± 0.029.
Turning to `CC1(C)OC2CC3C4CCC5=CC(=O)C=CC5(C)C4C(O)CC3(C)C2(C(=O)CO)O1` (centres undefined) [Desonide], the IL-6-GFP fluorescence came out at 0.85 ± 0.11.
In the case of `COc1ccc2cc1Oc1ccc(cc1)CC1c3cc(c(OC)cc3CCN1C)Oc1c(OC)c(OC)cc3c1C(C2)N(C)CC3` (centres undefined) [Tetrandrine] it was 0.672 ± 0.029.
In the case of `CNC(=O)c1ccccc1Sc1ccc2c(/C=C/c3ccccn3)n[nH]c2c1` [Axitinib] it was 1.068 ± 0.0028.
In the case of `C/C=C(/C)C(=O)OC1C(OC(C)=O)C2(CO)C(O)CC3(C)C(=CCC4C5(C)CCC(OC6OC(C(=O)O)C(OC7OC(CO)C(O)C(O)C7O)C(O)C6OC6OC(CO)C(O)C(O)C6O)C(C)(CO)C5CCC43C)C2CC1(C)C` (centres undefined) [Escin] it was 0.915 ± 0.067; in that of `COC(=O)NC(C(=O)N1CCCC1c1ncc(-c2ccc3c(c2)OC(c2ccccc2)n2c-3cc3cc(-c4cnc(C5CCCN5C(=O)C(NC(=O)OC)C(C)C)[nH]4)ccc32)[nH]1)C(C)C` (centres undefined) [Elbasvir], 2.06 ± 0.29; in that of `CC(C)c1c(C(=O)Nc2ccccc2)c(-c2ccccc2)c(-c2ccc(F)cc2)n1CCC(O)CC(O)CC(=O)O` (centres undefined) [atorvastatin], 0.776 ± 0.067.
Regarding `O=c1ccc2ccc(O)c(O)c2o1` [Daphnetin], the IL-6-GFP fluorescence is 1.79 ± 0.67.
The figure for `Nc1cc(C(Cl)=C(Cl)Cl)c(S(N)(=O)=O)cc1S(N)(=O)=O` [Clorsulon] is 0.972 ± 0.32; for `CC12CCC(CC1=O)C2(C)C` (centres undefined) [Camphor] it is 0.866 ± 0.083; for `CCCC1CC(C(=O)NC(C(C)O)C2OC(SC)C(O)C(O)C2O)N(C)C1.Cl` (centres undefined) [Lincomycin HCl] it is 0.957 ± 0.23.
The figure for `CC(=O)c1c(C)c2cnc(Nc3ccc(N4CCNCC4)cn3)nc2n(C2CCCC2)c1=O.Cl` is 0.826 ± 0.019.
In the case of `Cn1cnc2c(F)c(Nc3ccc(Br)cc3F)c(C(=O)NOCCO)cc21`, the IL-6-GFP fluorescence was 0.871 ± 0.028.
The compound `COc1cc(-c2coc3cc4c(c(OC)c3c2=O)OCO4)cc(OC)c1OC` [Irisflorentin] returned an IL-6-GFP fluorescence of 0.901 ± 0.071.
The figure for `CC(C(=O)O)c1ccc(C(=O)c2cccs2)cc1` (centres undefined) [Suprofen] is 0.726 ± 0.047.
`COc1cc2nccc(Oc3ccc(NC(=O)NC4CC4)c(Cl)c3)c2cc1C(N)=O` [Lenvatinib (E7080)] displayed an IL-6-GFP fluorescence of 0.874 ± 0.068.
The compound `Cc1cnc(NC(=O)C2=C(O)c3ccccc3S(=O)(=O)N2C)s1` [Meloxicam] came in with an IL-6-GFP fluorescence of 0.782 ± 0.098.
`CC1=C(/C=C/C(C)=C/C=C/C(C)=C/C(=O)Nc2ccc(O)cc2)C(C)(C)CCC1` [Fenretinide] returned an IL-6-GFP fluorescence of 0.27692 ± 8.3e-05.
Compound `C=CCC1/C=C(\C)CC(C)CC(OC)C2OC(O)(C(=O)C(=O)N3CCCCC3C(=O)OC(/C(C)=C/C3CCC(O)C(OC)C3)C(C)C(O)CC1=O)C(C)CC2OC` (centres undefined) [Tacrolimus (FK506)] came in with an IL-6-GFP fluorescence of 0.787 ± 0.11.
The figure for `CCCCCCCCCCCC1=C(O)C(=O)C=C(O)C1=O` [Embelin] is 0.681 ± 0.027; for `COc1ccc2cc1Oc1ccc(cc1)CC1c3c(cc4c(c3Oc3cc5c(cc3OC)CCN(C)C5C2)OCO4)CCN1C` (centres undefined) [Cepharanthine] it is 0.87 ± 0.051.
With `Cc1c(O)c(C)c2c(c1O)C(=O)CC(c1ccc(O)cc1)O2` (centres undefined) [Farrerol], the IL-6-GFP fluorescence came out at 0.66 ± 0.42.
In the case of `COc1cc(C2c3cc4c(cc3C(OC3OC5COC(c6cccs6)OC5C(O)C3O)C3COC(=O)C23)OCO4)cc(OC)c1O` (centres undefined) [Teniposide] it was 1.17 ± 0.29; in that of `CC1CC2C3CCC4=CC(=O)C=CC4(C)C3(F)C(O)CC2(C)C1(O)C(=O)CO` (centres undefined) [Betamethasone], 0.905 ± 0.18; in that of `COc1cc(C2c3cc4c(cc3C(OC3OC5COC(C)OC5C(O)C3O)C3COC(=O)C23)OCO4)cc(OC)c1O` (centres undefined) [Etoposide], 0.988 ± 0.1.
In the case of `C=C1C(=O)OC2C1CCC(=C)C1CCC(=C)C12` (centres undefined) [Dehydrocostus Lactone] it was 0.767 ± 0.35; in that of `CS(=O)(=O)c1ccc(C(=O)Nc2ccc(Cl)c(-c3ccccn3)c2)c(Cl)c1` [Vismodegib (GDC-0449)], 0.931 ± 0.1; in that of `COc1cc2nccc(Oc3ccc(NC(=O)C4(C(=O)Nc5ccc(F)cc5)CC4)cc3)c2cc1OC.O=C(O)CC(O)C(=O)O` [Cabozantinib malate (XL184)], 0.99 ± 0.13.
The figure for `COc1ccnc(CS(=O)c2nc3ccc(-n4cccc4)cc3[nH]2)c1C` (centres undefined) [Ilaprazole] is 0.94 ± 0.27.
In turn, `O=c1c(-c2ccc(O)cc2)coc2cc(O)cc(O)c12` [Genistein] registered an IL-6-GFP fluorescence of 1.07 ± 0.29.

The values are drawn from the supplement of paper PMC8866396.
